# Laboratory results published in patent publication US6995135B2, “Peptides and peptidomimetics having anti-proliferative activity and/or that augment nucleic acid damaging agents or treatments” (priority 2002, dated 2006).
# At least one peptide structure holds a part that was inferred or is arguable (an end, a ring closure or a residue). Square brackets hold non-standard residues; d marks the D form. Peptide text beside a SMILES is read from it. Phe(F5) = N[C@@H](Cc1c(F)c(F)c(F)c(F)c1F)C(=O)O; dPhe(F5) = N[C@H](Cc1c(F)c(F)c(F)c(F)c1F)C(=O)O; Cha = N[C@@H](CC1CCCCC1)C(=O)O; dCha = N[C@H](CC1CCCCC1)C(=O)O; Aun = NCCCCCCCCCCC(=O)O
# Test system: Jurkat cells
# Experiment: G2 checkpoint abrogation in bleomycin treated Jurkat cells, flow cytometry
# Type: cell-based, human
# Details: with 40 μg/ml bleomycine, 24 hours, dose with detectable G2 checkpoint abrogation
row,Compound,G2 abrogating dose
1,"N=C(N)NCCC[C@H](NC(=O)CNC(=O)[C@@H](N)Cc1ccc(O)cc1)C(=O)N[C@@H](CCCCN)C(=O)N[C@@H](CCCCN)C(=O)N[C@@H](CCCNC(=N)N)C(=O)N[C@@H](CCCNC(=N)N)C(=O)N[C@@H](CCC(N)=O)C(=O)N[C@@H](CCCNC(=N)N)C(=O)N[C@@H](CCCNC(=N)N)C(=O)N[C@@H](CCCNC(=N)N)C(=O)N[C@@H](CC1CCCCC1)C(=O)N[C@@H](Cc1c(F)c(F)c(F)c(F)c1F)C(=O)N[C@@H](CCCNC(=N)N)C(=O)N[C@@H](CO)C(=O)N1CCC[C@H]1C(=O)N[C@@H](CO)C(=O)N[C@@H](Cc1ccc(O)cc1)C(=O)O [CBP420, (l-Tyr)(l-Gly)(l-Arg)(l-Lys)(l-Lys)(l-Arg)(l-Arg)(l-Gln)(l-Arg)(l-Arg)(l-Arg)(l-Cha)(l-Phe-2,3,4,5,6-F)(l-Arg)(l-Ser)(l-Pro)(l-Ser)(l-Tyr)]",≧1.56 μM
2,"N=C(N)NCCC[C@@H](NC(=O)[C@@H](CCCCN)NC(=O)[C@@H](CCCCN)NC(=O)[C@@H](CCCNC(=N)N)NC(=O)[C@@H](CCCNC(=N)N)NC(=O)[C@@H](CCC(N)=O)NC(=O)[C@@H](CCCNC(=N)N)NC(=O)[C@@H](CCCNC(=N)N)NC(=O)[C@@H](CCCNC(=N)N)NC(=O)[C@@H](CC1CCCCC1)NC(=O)[C@@H](Cc1c(F)c(F)c(F)c(F)c1F)NC(=O)CCCCCCCCCCN)C(=O)NCC(=O)N[C@H](Cc1ccc(O)cc1)C(=O)O [CBP463, (1-aminoundecanoic acid)(d-Phe-2,3,4,5,6-F)(d-Cha)(d-Arg)(d-Arg)(d-Arg)(d-Gln)(d-Arg)(d-Arg)(d-Lys)(d-Lys)(d-Arg)(1-Gly)(d-Tyr)] (H-[Aun][dPhe(F5)][dCha][dR][dR][dR][dQ][dR][dR][dK][dK][dR]G[dY]-OH; N-terminus and C-terminus assumed)",≧0.39 μM
3,"N=C(N)NCCC[C@H](NC(=O)[C@H](CCCNC(=N)N)NC(=O)[C@H](CCCNC(=N)N)NC(=O)[C@H](CCC(N)=O)NC(=O)[C@H](CCCNC(=N)N)NC(=O)[C@@H](N)CCCNC(=N)N)C(=O)N[C@@H](CC1CCCCC1)C(=O)N[C@@H](Cc1c(F)c(F)c(F)c(F)c1F)C(=O)N[C@@H](CCCNC(=N)N)C(=O)N[C@@H](CO)C(=O)N1CCC[C@H]1C(=O)N[C@@H](CO)C(=O)N[C@@H](Cc1ccc(O)cc1)C(=O)N[C@@H](Cc1ccc(O)cc1)C(=O)O [CBP431, (l-Arg)(l-Arg)(l-Gln)(l-Arg)(l-Arg)(l-Arg)(l-Cha)(l-Phe-2,3,4,5,6-F)(l-Arg)(l-Ser)(l-Pro)(l-Ser)(l-Tyr)(l-Tyr)] (H-RRQRRR[Cha][Phe(F5)]RSPSYY-OH; N-terminus and C-terminus assumed)",≧3.125 μM
4,"N=C(N)NCCC[C@@H](NC(=O)[C@@H](CCCCN)NC(=O)[C@@H](CCCCN)NC(=O)[C@@H](CCCNC(=N)N)NC(=O)[C@@H](CCCNC(=N)N)NC(=O)[C@@H](CCC(N)=O)NC(=O)[C@@H](CCCNC(=N)N)NC(=O)[C@@H](CCCNC(=N)N)NC(=O)[C@@H](CCCNC(=N)N)NC(=O)[C@@H](CC1CCCCC1)NC(=O)[C@@H](Cc1c(F)c(F)c(F)c(F)c1F)NC(=O)CCCCCCCCCCNC(=O)[C@H](Cc1ccc(O)cc1)NC(=O)[C@@H](N)Cc1ccc(O)cc1)C(=O)NCC(=O)N[C@H](Cc1ccc(O)cc1)C(=O)O [CBP460, (l-Tyr)(l-Tyr)(1-aminoundecanoic acid)(d-Phe-2,3,4,5,6-F)(d-Cha)(d-Arg)(d-Arg)(d-Arg)(d-Gln)(d-Arg)(d-Arg)(d-Lys)(d-Lys)(d-Arg)(l-Gly)(d-Tyr)] (H-YY[Aun][dPhe(F5)][dCha][dR][dR][dR][dQ][dR][dR][dK][dK][dR]G[dY]-OH; N-terminus and C-terminus assumed)",≧0.39 μM
5,"N=C(N)NCCC[C@@H](NC(=O)[C@@H](CCCCN)NC(=O)[C@@H](CCCCN)NC(=O)[C@@H](CCCNC(=N)N)NC(=O)[C@@H](CCCNC(=N)N)NC(=O)[C@@H](CCC(N)=O)NC(=O)[C@@H](CCCNC(=N)N)NC(=O)[C@@H](CCCNC(=N)N)NC(=O)[C@@H](CCCNC(=N)N)NC(=O)[C@@H](CC1CCCCC1)NC(=O)[C@@H](Cc1c(F)c(F)c(F)c(F)c1F)NC(=O)CCCCCCCCCCNC(=O)[C@@H](N)Cc1ccc(O)cc1)C(=O)NCC(=O)N[C@H](Cc1ccc(O)cc1)C(=O)O [CBP461, (l-Tyr)(1-aminoundecanoic acid)(d-Phe-2,3,4,5,6-F)(d-Cha)(d-Arg)(d-Arg)(d-Arg)(d-Gln)(d-Arg)(d-Arg)(d-Lys)(d-Lys)(d-Arg)(l-Gly)(d-Tyr)] (H-Y[Aun][dPhe(F5)][dCha][dR][dR][dR][dQ][dR][dR][dK][dK][dR]G[dY]-OH; N-terminus and C-terminus assumed)",≧0.39 μM
